Data from patent US20200407723.
Construct, isoform or probe ends are uncertain for at least one entry. For some assays here: Negatives hold for the conditions tested.

Key:
[1] = tested on: human IgG (polyclonal, from serum + Fc domain) (Homo sapiens); test: pull-down; settings: 2'-F U at 6, 9, 21; 2'-F C at 20; ribonucleotides at A3, G4, G5, G7, G16, G17; all other positions deoxyribonucleotides; immobilized on streptavidin resin; best in 10 mM Tris pH 7.2 with Mg2+ 50 uM-1 mM; max capacity about 6.5 ug hIgG/ug aptamer in 10 mM Tris, 0.5 mM Mg; purified native protein; protein details: Sigma-Aldrich, IgG from human serum; label: 5'-biotin
[2] = tested on: rabbit IgG (Oryctolagus cuniculus); test: pull-down; settings: 2'-F U at 6, 9, 21; 2'-F C at 20; ribonucleotides at A3, G4, G5, G7, G16, G17; all other positions deoxyribonucleotides; negative control; negligible non-specific binding in Tris with Mg2+; high non-specific binding with Zn2+ or Mn2+; purified native protein; protein details: Sigma-Aldrich; label: 5'-biotin

## GGAGGUGCUCCGAAAGGAACUCC [anti-human Fc 23-nt aptamer SEQ ID NO 1]
[1]
  binding result: binds
[2]
  binding result: no binding
